Patent US20180360993A1
No constants are given. Whether binding was seen depends on the method and setting. Some entries that bind do so weakly or less than the wild type. Where a sequence is shown, tags or fusion partners need not be part of it.

By UniProt entry, the sequences of proteins in these tests, tags left out. Residues count along the entry.
UniProt Q9QUK6, residues 26-835: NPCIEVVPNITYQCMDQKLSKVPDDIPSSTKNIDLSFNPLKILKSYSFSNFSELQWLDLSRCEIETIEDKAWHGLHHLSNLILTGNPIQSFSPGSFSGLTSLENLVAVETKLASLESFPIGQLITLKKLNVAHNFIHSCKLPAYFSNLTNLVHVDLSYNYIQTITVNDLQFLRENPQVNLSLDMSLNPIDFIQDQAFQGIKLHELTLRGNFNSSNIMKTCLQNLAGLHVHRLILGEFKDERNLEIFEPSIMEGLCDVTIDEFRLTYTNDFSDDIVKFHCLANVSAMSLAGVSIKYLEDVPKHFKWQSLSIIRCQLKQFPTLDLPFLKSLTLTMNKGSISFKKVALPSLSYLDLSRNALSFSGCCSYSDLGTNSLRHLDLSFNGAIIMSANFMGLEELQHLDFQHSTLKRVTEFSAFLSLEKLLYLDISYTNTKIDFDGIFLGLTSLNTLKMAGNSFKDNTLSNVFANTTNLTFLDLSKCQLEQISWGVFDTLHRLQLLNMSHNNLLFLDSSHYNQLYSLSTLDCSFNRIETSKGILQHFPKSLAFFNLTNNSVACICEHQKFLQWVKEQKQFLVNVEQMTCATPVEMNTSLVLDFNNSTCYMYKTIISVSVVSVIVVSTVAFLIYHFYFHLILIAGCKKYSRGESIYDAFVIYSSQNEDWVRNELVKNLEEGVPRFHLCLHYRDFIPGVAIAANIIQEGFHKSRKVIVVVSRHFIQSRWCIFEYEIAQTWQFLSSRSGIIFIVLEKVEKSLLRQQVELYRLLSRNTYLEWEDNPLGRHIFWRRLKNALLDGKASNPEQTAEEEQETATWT

Key:
[1] = biological target: TLR4 on primary peritoneal macrophages of wild type mice (mouse) (UniProt Q9QUK6); experiment: flow cytometry on peritoneal macrophages, 2 µg/ml AIBP, FITC anti-His detection
[2] = biological target: TLR4 on primary peritoneal macrophages of wild type mice (mouse) (UniProt Q9QUK6); experiment: flow cytometry on WT and Tlr4-/- peritoneal macrophages, FITC anti-His detection (FIG. 11C)

B1: recombinant human AIBP with N-terminal His-tag (baculovirus/insect cell system) (protein, not shown: small tags and cut ends)
chain: QTIACRSGPTWWGPQRLNSGGRWDSEVMASTVVKYLSQEEAQAVDQELFNEYQFSVDQLMELAGLSCATAIAKAYPPTSMSRSPPTVLVICGPGNNGGDGLVCARHLKLFGYEPTIYYPKRPNKPLFTALVTQCQKMDIPFLGEMPAEPMTIDELYELVVDAIFGFSFKGDVREPFHSILSVLKGLTVPIASIDIPSGWDVEKGNAGGIQPDLLISLTAPKKSATQFTGRYHYLGGRFVPPALEKKYQLNLPPYPDTECVYRLQ
binding [1]: binds
binding [2]: binds
